For the series, the system named is normal mouse skin. Briefly: Activity assay hyperproliferative disorders: epidermal thickening (acanthosis) in hairless mice, oral. It counts as in vivo, hairless mice (Moro hr/hr). The note with it: calcitriol 3 days, test compounds 4 days. On the procedure:
Activity Assay Hyperproliferative Disorders
Orally administered vitamin D analogues can lead to epidermal thickening (acanthosis) in hairless mice. […] Compounds of formula I were tested for 4 days at different dosages in order to detect compounds which show this epidermal effect at subtoxic and non-toxic doses (dosage leading to slight or no weight loss). […] The calcitriol data were obtained from animals treated for three days.
Hairless mice (Moro hr/hr) received daily administrations of the test compound in arachis oil by gavage for 4 days, using 2-5 different dosages (3 fold increments; 2 animals per dosage group). The mice were sacrificed at day 5 and skin biopsies were taken, fixed in formalin and treated for histological evaluation. The epidermal thickness was measured at standard magnification using an occular grid. Daily measurements of body weight allows to judge toxicity (calcemic liability) and determine the non-toxic dose level defined as the dose which is tolerated without weight loss.
ED50 : dose (μg/kg) causing halfmaximal epidermal thickening
TI shift: shift in "therapeutic index", is defined as ratio ED50 /HT
for calcitriol divided by the ratio ED50 /HTP for the test compound
Consider `C=C1/C(=C\C=C2/CCC[C@]3(C)[C@@H]([C@H](C)CCCC(C)(C)O)CC[C@@H]23)C[C@@H](O)C[C@@H]1O` [calcitriol, 1,25-dihydroxycholecalciferol, reference compound], for which the “TI shift (shift in therapeutic index: ratio ED50/HTD for calcitriol divided by that for the test compound)” value is reported as 1.
Regarding `C=C1/C(=C\C=C2/CCC[C@]3(C)[C@@H]([C@@H](C)C#Cc4ccccc4C(C)(C)O)CC[C@@H]23)C[C@@H](O)C[C@@H]1O` [Example 16, (5Z,7E)-(1S,3R,20R)-23-[2-(1-Hydroxy-1-methyl-ethyl)-phenyl)-24-nor-9,10-seco-chola-5,7,10(19)-trien-22-yne-1,3-diol], the “TI shift (shift in therapeutic index: ratio ED50/HTD for calcitriol divided by that for the test compound)” value is reported as 100.
Turning to `CC(C#Cc1ccccc1C(C)(C)O)[C@H]1CC[C@H]2/C(=C/C=C3C[C@@H](O)C[C@H](O)C3)CCC[C@]12C` (stereo partly drawn) [Example 6, (7E)-(1R,3R)-23-[2-(1-Hydroxy-1-methyl-ethyl)-phenyl]-19,24-dinor-9,10-seco-chola-5,7-dien-22-yne-1,3-diol], the “TI shift (shift in therapeutic index: ratio ED50/HTD for calcitriol divided by that for the test compound)” value turned out to be 8.
In the case of `C=C1/C(=C\C=C2/CCC[C@]3(C)[C@@H]([C@@H](C)C#Cc4cccc(C(C)(C)O)c4)CC[C@@H]23)C[C@@H](O)C[C@@H]1O` [Example 14, (5Z,7E)-(1S,3R,20R)-23-[3-(1-Hydroxy-1-methyl-ethyl)-phenyl)-24-nor-9,10seco-chola-5,7,10(19)-trien-22-yne-1,3-diol] it was 71.

Values taken from US6153605A, “Arylsecocholadiene derivatives” (priority 1997, dated 2000).
